Data from publication PMC6843786, “Temporin-SHa and Its Analogs as Potential Candidates for the Treatment of Helicobacter pylori” (Biomolecules, 2019).
Non-standard residues stand in square brackets, D forms with d. Residues, ends and D or L forms follow the SMILES beside them.

Test system: N87 cells
Assay: In vitro toxicity assay using human gastric cells (resazurin)
Assay type: cell-based
Details: IC50 on N87 divided by MIC on H. pylori (ATCC 43504)
Description: [26] Human gastric cells N87 (ATCC CRL-5822) were cultured in RPMI-1640 medium supplemented with 10% fetal calf serum (FCS), 1% L-glutamine and 1% antibiotics (all from Invitrogen, Carlsbad, CA, USA) and were routinely seeded onto 25 cm^2 flasks maintained in a 5% CO2 incubator at 37 °C. For the toxicity assay, cells grown on 25 cm^2 flasks were detached using trypsin–EDTA solution (from Thermofisher), counted using Mallasez counting chamber and seeded into 96-well cell culture plates (Greiner Bio-one) at approximately 10^4 cells per well. The cells were left to grow for 48–72 h at 37 °C in a 5% CO2 incubator until they reached confluence. Plates were then aspirated and increasing concentrations of peptides were added to the cells for 48 h at 37 °C in a 5% CO2 incubator, volume of water corresponding to the volume of peptides being used as negative control. At the end of the incubation, wells were aspirated, and cell viability was evaluated using resazurin-based in vitro toxicity assay kit (Sigma-Aldrich) following manufacturer’s instructions. […] After 4 h incubation at 37 °C, fluorescence intensity was measured using microplate reader (Synergy Mx, Biotek) with an excitation wavelength of 530 nm and an emission wavelength of 590 nm. The fluorescence values were normalized by the controls and expressed as percent viability.

## CC[C@H](C)[C@H](NC(=O)CNC(=O)[C@H](CO)NC(=O)[C@H](CC(C)C)NC(=O)[C@@H](N)Cc1ccccc1)C(=O)N[C@H](C(=O)NCC(=O)N[C@@H](CCSC)C(=O)N[C@@H](CC(C)C)C(=O)N[C@H](C)C(=O)N[C@@H](CCCCN)C(=O)N[C@@H](CC(C)C)C(=O)N[C@@H](Cc1ccccc1)C(N)=O)C(C)C [NST1, H-Phe^1-Leu^2-Ser^3-Gly^4-Ile^5-Val^6-Gly^7-Met^8-Leu^9-D-Ala^10-Lys^11-Leu^12-Phe^13-NH2] (H-FLSGIVGML[dA]KLF-NH2)
  TI (IC50/MIC): 60.27

## CC[C@H](C)[C@H](NC(=O)[C@@H](C)NC(=O)[C@H](CO)NC(=O)[C@H](CC(C)C)NC(=O)[C@@H](N)Cc1ccccc1)C(=O)N[C@H](C(=O)NCC(=O)N[C@@H](CCSC)C(=O)N[C@@H](CC(C)C)C(=O)NCC(=O)N[C@@H](CCCCN)C(=O)N[C@@H](CC(C)C)C(=O)N[C@@H](Cc1ccccc1)C(N)=O)C(C)C [NST2, H-Phe^1-Leu^2-Ser^3-D-Ala^4-Ile^5-Val^6-Gly^7-Met^8-Leu^9-Gly^10-Lys^11-Leu^12-Phe^13-NH2] (H-FLS[dA]IVGMLGKLF-NH2)
  TI (IC50/MIC): 99.76
